Reference: US20250145697A1 (WASHINGTON UNIVERSITY, published 2025)
No constants are given. Whether binding was seen depends on the method and setting. Some binding calls cover weakened binding; strength is not graded here.

Protein sequences, listed by entry. Tags and fused reporters are not part of them. Lines headed by an entry give the natural chain unless they say otherwise; changes in a name come on top. Chains listed by the source or under a name are the forms on record and can include a tag or linker.
ApoE derived from human plasma lipoprotein (P02649, form named): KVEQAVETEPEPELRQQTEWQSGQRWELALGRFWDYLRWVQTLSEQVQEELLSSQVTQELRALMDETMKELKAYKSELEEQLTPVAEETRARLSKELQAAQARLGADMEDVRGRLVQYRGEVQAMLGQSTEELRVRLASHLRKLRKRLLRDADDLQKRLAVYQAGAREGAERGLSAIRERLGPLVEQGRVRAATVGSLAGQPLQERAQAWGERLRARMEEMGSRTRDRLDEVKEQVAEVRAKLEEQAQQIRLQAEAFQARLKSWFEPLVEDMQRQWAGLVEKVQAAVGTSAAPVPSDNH

Biological target: HJ153
Experiment: competition ELISA: 4 nM antibody pre-incubated 1 h with dilutions of E4+ human plasma, then on plate coated with recombinant ApoE4 (0.5 ug/mL) as competitor; anti-mouse IgG-HRP, OD450

binding: binds
Substance: ApoE derived from human plasma lipoprotein (from UniProt P02649 19-317) (ligand)
